Results: patent US20050163783A1
Results are given in words; binding and its absence hold for the method and conditions named. Some binding calls cover weakened binding; strength is not graded here.

The chains behind the UniProt entries cited, without tags or fusion partners. Residues count along the entry.
UniProt P13385, residues 31-150: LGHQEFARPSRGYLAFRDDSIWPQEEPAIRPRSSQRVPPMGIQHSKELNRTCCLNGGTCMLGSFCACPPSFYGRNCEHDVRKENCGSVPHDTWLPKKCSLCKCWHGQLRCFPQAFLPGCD

Assays:
[1] = molecular target: CRIPTO antigen on GEO tumor cells (UniProt P13385); experiment: flow cytometry competitive binding on GEO tumor cells (FIG. 35 legend)
[2] = molecular target: CRIPTO antigen on GEO tumor cells (UniProt P13385); experiment: flow cytometry competitive binding assay with FITC-labeled B3F6 IgG on GEO tumor cells

binding [1]: binds
binding [2]: binds
B1: ChB3F6ΔCH2 G1/G3/Pro243Ala244Pro245 antibody (antibody, human IgG1, kappa, V domains shown)
VH: QVQLQQVGAELVKPGASVKLSCKASGYTFTSYWIHWVKQRPGQGLEWIGENDPSNGRTNYNEKFKNKATLTVDKSSSTAYMHLSSLTSEDSAVYYCSRGPNYFYSMDYWGQGTSVTVSS
VL: DFLMTQTPLSLPVSLGDQASISCRSSQSIVHSNGNTYLEWYLQKPGQSPKLLIYKVSNRFSGVPDRFSGSGSGTDFTLKISRVEAEDLGVYYCFQGSHVPLTFGAGTKLELKR
